Record: PubChem BioAssay AID1224827 (NIAID, 2016)

- Assay: 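Confirm genes whose knock-down changes LPS-driven TNF promoter activity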 (follow-up of hits)
- Cell system: RAW264.7 G9 mouse macrophage reporter clone
- Knock-down reagent: single siRNA against mouse genes, 100 nM siRNA
- Duration: siRNA for 2 days, then LPS about 16 h
- Treatment: bacterial lipopolysaccharide (LPS), 10 ng/ml, cells fixed after overnight (about 16 h) stimulation
- Measurement: 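Imaged nuclear TNF reporter intensity, background removed, scaled per plate and to non-targeting control wells, as z-scores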
- Reading the numbers: TNF reporter z-score, mean and TNF reporter z-score: higher = stronger Tnf promoter reporter signal; gene median z, three same-vendor siRNAs: higher = stronger Tnf reporter signal for the gene
- Rule for the call: 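An siRNA is called active when its mean z-score over replicates is at least +2 or at most -2; control wells get no call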
Shown is an unselected part of about 3,800 reagents tested. In the full data, about 2,200 (57%) got an active call. 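Active means a strong reporter change in either direction; calls are per siRNA, not per gene; qiagen siRNAs gave weaker effects.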 Reagents against one gene are numbered here.

no.	Target gene	reagent no.	TNF reporter z-score, mean	gene median z, three same-vendor siRNAs	TNF reporter z-score, repeat 1	TNF reporter z-score, repeat 2	call
1	Palm (paralemmin)	1	0.914	-1.9	-0.772	2.6	inactive
2	Palm (paralemmin)	2	-1.41	-1.9	-3.03	0.209	inactive
3	Palm (paralemmin)	3	-5.24	-1.9	-6.04	-4.43	active
4	Palm (paralemmin)	4	2.87	0.418	4.95	0.8	active
5	Palm (paralemmin)	5	0.926	0.418	3.53	-1.68	inactive
6	Palm (paralemmin)	6	-0.251	0.418	0.0354	-0.537	inactive
7	Prelid3a (PRELI domain containing 3A)	1	8.3	-3.62	7.25	9.35	active
8	Prelid3a (PRELI domain containing 3A)	2	-3.62	-3.62	-3.65	-3.6	active
9	Prelid3a (PRELI domain containing 3A)	3	-4.76	-3.62	-4.49	-5.03	active
10	Prelid3a (PRELI domain containing 3A)	4	0.488	-0.936	1.23	-0.256	inactive
11	Prelid3a (PRELI domain containing 3A)	5	0.175	-0.936	1.96	-1.62	inactive
12	Prelid3a (PRELI domain containing 3A)	6	-2.14	-0.936	-1.74	-2.53	active
13	Thbs2 (thrombospondin 2)	1	-3.9	-4.53	-4.02	-3.77	active
14	Thbs2 (thrombospondin 2)	2	-4.53	-4.53	-4.76	-4.29	active
15	Thbs2 (thrombospondin 2)	3	-5.91	-4.53	-5.22	-6.61	active
16	Thbs2 (thrombospondin 2)	4	3.06	0.291	5.58	0.546	active
17	Thbs2 (thrombospondin 2)	5	1.82	0.291	3.99	-0.351	inactive
18	Thbs2 (thrombospondin 2)	6	-1.17	0.291	0.0367	-2.39	inactive
19	Rag1 (recombination activating 1)	1	4.27	1.43	3.16	5.38	active
20	Rag1 (recombination activating 1)	2	1.43	1.43	1.42	1.45	inactive
21	Rag1 (recombination activating 1)	3	-5.67	1.43	-5.74	-5.61	active
22	Rag1 (recombination activating 1)	4	3.69	1.28	5.45	1.93	active
23	Rag1 (recombination activating 1)	5	2.83	1.28	6.01	-0.344	active
24	Rag1 (recombination activating 1)	6	0.423	1.28	0.634	0.212	inactive

Records listed so far whose target name begins with T or t (6):
Target gene	reagent no.	TNF reporter z-score, mean	gene median z, three same-vendor siRNAs	TNF reporter z-score, repeat 1	TNF reporter z-score, repeat 2	call
Thbs2 (thrombospondin 2)	1	-3.9	-4.53	-4.02	-3.77	active
Thbs2 (thrombospondin 2)	2	-4.53	-4.53	-4.76	-4.29	active
Thbs2 (thrombospondin 2)	3	-5.91	-4.53	-5.22	-6.61	active
Thbs2 (thrombospondin 2)	4	3.06	0.291	5.58	0.546	active
Thbs2 (thrombospondin 2)	5	1.82	0.291	3.99	-0.351	inactive
Thbs2 (thrombospondin 2)	6	-1.17	0.291	0.0367	-2.39	inactive

The listing continues:
no.	Target gene	reagent no.	TNF reporter z-score, mean	gene median z, three same-vendor siRNAs	TNF reporter z-score, repeat 1	TNF reporter z-score, repeat 2	call
25	A730013G03Rik (RIKEN cDNA A730013G03 gene)	1	0.0554	-1.75	-0.925	1.04	inactive
26	A730013G03Rik (RIKEN cDNA A730013G03 gene)	2	-0.421	-1.75	-2.57	1.73	inactive
27	A730013G03Rik (RIKEN cDNA A730013G03 gene)	3	-3.69	-1.75	-4.05	-3.33	active
28	A730013G03Rik (RIKEN cDNA A730013G03 gene)	4	4.02	1.97	5.97	2.07	active
29	A730013G03Rik (RIKEN cDNA A730013G03 gene)	5	4.37	1.97	6.86	1.88	active
30	A730013G03Rik (RIKEN cDNA A730013G03 gene)	6	0.491	1.97	0.822	0.16	inactive
31	Dgcr8 (DGCR8, microprocessor complex subunit)	1	-3.58	-3.87	-3.84	-3.33	active
32	Dgcr8 (DGCR8, microprocessor complex subunit)	2	-3.9	-3.87	-3.85	-3.95	active
33	Dgcr8 (DGCR8, microprocessor complex subunit)	3	-4.4	-3.87	-3.88	-4.92	active
34	Dgcr8 (DGCR8, microprocessor complex subunit)	4	1.14	-2.07	2.64	-0.351	inactive
35	Dgcr8 (DGCR8, microprocessor complex subunit)	5	-2.41	-2.07	-3.19	-1.63	active
36	Dgcr8 (DGCR8, microprocessor complex subunit)	6	-2.81	-2.07	-2.51	-3.12	active
37	Ifi204 (interferon activated gene 204)	1	8.46	4.5	6.09	10.8	active
38	Ifi204 (interferon activated gene 204)	2	2.88	4.5	0.256	5.51	active
39	Ifi204 (interferon activated gene 204)	3	1.68	4.5	-0.129	3.49	inactive
40	Ifi204 (interferon activated gene 204)	4	-0.656	-1.15	-1.66	0.35	inactive
41	Ifi204 (interferon activated gene 204)	5	-1.56	-1.15	-2.49	-0.63	inactive
42	Ifi204 (interferon activated gene 204)	6	-1.28	-1.15	-0.622	-1.93	inactive
